This is an account of results in PMC10977041.

Sequences of proteins named here, by UniProt entry; tags and fusion partners are left off.
UniProt O95863: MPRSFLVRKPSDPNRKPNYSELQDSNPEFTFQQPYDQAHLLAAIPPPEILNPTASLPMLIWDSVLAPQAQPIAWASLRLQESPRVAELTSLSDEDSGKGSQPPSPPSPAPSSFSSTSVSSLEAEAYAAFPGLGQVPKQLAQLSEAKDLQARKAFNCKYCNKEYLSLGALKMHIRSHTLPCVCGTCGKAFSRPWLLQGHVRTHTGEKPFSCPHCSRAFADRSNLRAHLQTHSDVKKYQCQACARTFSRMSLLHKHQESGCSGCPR

The target in one experiment is FLAG-SNAIL (UniProt O95863). In words: co-IP; FLAG-SNAIL precipitated with anti-flag M2 affinity gel from NP40 lysates of MDA-MB-231 cells coexpressing FLAG-SNAIL and HA-MARCH2; 1 hour at room temperature; blotted with anti-HA; also with vehicle or P21d for 4 or 18 hours in the presence of MG132.
Experiment [1] deals with endogenous SNAIL (human (endogenous in MDA-MB-231)) (UniProt O95863). In words: proximity ligation; Duolink PLA on fixed, permeabilised MDA-MB-231 cells with antibodies to Snail and MARCH2; DMSO or P21d for 8 hours, MG132 for the last 4 hours; PLA signals per cell counted with ImageJ.

These are yes or no findings as the source states them, for the method shown. In cells and extracts the contact can be indirect. Some results given as binding are weak or reduced against the parent protein; the word gives no strength. For some assays here: Sequences can lack the tags named with a protein.

B1: HA-tagged MARCH2 (membrane-associated RING-CH2), wild type (protein, UniProt Q9P0N8 1-246)
chain: MTTGDCCHLPGSLCDCSGSPAFSKVVEATGLGPPQYVAQVTSRDGRLLSTVIRALDTPSDGPFCRICHEGANGECLLSPCGCTGTLGAVHKSCLEKWLSSSNTSYCELCHTEFAVEKRPRPLTEWLKDPGPRTEKRTLCCDMVCFLFITPLAAISGWLCLRGAQDHLRLHSQLEAVGLIALTIALFTIYVLWTLVSFRYHCQLYSEWRKTNQKVRLKIREADSPEGPQHSPLAAGLLKKVAEETPV
B1: the binding entry in the experiment with FLAG-SNAIL is on record as “binds”.

B2: endogenous MARCH2 (protein, UniProt Q9P0N8 1-246)
chain: B1 chain
B2: the binding entry in experiment [1] is given as “binds”.
